This is one part of the list.

Protein sequences, listed by entry. Tags and fused reporters are not part of them. Lines headed by an entry give the natural chain unless they say otherwise; changes in a name come on top.
UniProt P50570: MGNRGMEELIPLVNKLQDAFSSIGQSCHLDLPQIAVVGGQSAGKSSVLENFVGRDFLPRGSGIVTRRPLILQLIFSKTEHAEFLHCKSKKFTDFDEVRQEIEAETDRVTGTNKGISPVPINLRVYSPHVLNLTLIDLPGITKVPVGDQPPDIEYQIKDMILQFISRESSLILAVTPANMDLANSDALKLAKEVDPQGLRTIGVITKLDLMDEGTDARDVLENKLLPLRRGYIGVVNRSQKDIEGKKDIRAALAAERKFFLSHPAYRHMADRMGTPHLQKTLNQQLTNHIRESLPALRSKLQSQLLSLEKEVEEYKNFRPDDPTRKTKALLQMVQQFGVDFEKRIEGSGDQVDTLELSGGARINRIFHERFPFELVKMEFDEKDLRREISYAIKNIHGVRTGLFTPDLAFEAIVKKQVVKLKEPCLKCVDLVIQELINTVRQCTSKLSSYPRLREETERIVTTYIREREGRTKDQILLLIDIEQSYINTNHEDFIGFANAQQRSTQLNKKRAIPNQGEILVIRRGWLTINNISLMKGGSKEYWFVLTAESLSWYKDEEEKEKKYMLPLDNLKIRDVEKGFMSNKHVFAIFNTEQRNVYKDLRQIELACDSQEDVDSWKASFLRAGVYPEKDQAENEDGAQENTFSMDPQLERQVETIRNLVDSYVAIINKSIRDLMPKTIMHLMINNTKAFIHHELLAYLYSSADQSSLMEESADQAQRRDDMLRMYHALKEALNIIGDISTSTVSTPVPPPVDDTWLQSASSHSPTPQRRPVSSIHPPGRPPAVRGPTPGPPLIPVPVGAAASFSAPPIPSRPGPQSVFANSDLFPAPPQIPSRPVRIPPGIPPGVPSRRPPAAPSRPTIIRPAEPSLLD
UniProt Q9NYP3: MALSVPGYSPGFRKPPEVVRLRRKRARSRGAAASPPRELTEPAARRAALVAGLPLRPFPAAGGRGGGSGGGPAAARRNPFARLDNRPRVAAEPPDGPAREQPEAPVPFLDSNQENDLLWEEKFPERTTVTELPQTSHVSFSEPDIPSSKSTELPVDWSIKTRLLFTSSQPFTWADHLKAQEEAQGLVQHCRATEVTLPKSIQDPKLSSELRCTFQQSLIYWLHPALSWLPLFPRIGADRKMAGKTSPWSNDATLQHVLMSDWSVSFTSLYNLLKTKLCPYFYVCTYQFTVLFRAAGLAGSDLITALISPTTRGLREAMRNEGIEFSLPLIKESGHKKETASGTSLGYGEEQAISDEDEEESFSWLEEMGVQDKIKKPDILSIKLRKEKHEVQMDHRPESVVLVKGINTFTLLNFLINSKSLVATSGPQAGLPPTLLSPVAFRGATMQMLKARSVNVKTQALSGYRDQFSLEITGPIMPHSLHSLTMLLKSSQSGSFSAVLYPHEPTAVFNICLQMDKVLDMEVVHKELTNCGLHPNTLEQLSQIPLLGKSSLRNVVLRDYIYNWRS
UniProt Q9BY27: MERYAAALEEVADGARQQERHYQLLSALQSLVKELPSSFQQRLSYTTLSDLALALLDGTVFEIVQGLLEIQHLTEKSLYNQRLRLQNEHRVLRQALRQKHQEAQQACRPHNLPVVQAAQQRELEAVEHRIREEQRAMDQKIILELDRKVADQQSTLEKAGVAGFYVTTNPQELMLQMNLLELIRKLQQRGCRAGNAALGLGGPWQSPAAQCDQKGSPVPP
UniProt P11532, whole entry, looked up: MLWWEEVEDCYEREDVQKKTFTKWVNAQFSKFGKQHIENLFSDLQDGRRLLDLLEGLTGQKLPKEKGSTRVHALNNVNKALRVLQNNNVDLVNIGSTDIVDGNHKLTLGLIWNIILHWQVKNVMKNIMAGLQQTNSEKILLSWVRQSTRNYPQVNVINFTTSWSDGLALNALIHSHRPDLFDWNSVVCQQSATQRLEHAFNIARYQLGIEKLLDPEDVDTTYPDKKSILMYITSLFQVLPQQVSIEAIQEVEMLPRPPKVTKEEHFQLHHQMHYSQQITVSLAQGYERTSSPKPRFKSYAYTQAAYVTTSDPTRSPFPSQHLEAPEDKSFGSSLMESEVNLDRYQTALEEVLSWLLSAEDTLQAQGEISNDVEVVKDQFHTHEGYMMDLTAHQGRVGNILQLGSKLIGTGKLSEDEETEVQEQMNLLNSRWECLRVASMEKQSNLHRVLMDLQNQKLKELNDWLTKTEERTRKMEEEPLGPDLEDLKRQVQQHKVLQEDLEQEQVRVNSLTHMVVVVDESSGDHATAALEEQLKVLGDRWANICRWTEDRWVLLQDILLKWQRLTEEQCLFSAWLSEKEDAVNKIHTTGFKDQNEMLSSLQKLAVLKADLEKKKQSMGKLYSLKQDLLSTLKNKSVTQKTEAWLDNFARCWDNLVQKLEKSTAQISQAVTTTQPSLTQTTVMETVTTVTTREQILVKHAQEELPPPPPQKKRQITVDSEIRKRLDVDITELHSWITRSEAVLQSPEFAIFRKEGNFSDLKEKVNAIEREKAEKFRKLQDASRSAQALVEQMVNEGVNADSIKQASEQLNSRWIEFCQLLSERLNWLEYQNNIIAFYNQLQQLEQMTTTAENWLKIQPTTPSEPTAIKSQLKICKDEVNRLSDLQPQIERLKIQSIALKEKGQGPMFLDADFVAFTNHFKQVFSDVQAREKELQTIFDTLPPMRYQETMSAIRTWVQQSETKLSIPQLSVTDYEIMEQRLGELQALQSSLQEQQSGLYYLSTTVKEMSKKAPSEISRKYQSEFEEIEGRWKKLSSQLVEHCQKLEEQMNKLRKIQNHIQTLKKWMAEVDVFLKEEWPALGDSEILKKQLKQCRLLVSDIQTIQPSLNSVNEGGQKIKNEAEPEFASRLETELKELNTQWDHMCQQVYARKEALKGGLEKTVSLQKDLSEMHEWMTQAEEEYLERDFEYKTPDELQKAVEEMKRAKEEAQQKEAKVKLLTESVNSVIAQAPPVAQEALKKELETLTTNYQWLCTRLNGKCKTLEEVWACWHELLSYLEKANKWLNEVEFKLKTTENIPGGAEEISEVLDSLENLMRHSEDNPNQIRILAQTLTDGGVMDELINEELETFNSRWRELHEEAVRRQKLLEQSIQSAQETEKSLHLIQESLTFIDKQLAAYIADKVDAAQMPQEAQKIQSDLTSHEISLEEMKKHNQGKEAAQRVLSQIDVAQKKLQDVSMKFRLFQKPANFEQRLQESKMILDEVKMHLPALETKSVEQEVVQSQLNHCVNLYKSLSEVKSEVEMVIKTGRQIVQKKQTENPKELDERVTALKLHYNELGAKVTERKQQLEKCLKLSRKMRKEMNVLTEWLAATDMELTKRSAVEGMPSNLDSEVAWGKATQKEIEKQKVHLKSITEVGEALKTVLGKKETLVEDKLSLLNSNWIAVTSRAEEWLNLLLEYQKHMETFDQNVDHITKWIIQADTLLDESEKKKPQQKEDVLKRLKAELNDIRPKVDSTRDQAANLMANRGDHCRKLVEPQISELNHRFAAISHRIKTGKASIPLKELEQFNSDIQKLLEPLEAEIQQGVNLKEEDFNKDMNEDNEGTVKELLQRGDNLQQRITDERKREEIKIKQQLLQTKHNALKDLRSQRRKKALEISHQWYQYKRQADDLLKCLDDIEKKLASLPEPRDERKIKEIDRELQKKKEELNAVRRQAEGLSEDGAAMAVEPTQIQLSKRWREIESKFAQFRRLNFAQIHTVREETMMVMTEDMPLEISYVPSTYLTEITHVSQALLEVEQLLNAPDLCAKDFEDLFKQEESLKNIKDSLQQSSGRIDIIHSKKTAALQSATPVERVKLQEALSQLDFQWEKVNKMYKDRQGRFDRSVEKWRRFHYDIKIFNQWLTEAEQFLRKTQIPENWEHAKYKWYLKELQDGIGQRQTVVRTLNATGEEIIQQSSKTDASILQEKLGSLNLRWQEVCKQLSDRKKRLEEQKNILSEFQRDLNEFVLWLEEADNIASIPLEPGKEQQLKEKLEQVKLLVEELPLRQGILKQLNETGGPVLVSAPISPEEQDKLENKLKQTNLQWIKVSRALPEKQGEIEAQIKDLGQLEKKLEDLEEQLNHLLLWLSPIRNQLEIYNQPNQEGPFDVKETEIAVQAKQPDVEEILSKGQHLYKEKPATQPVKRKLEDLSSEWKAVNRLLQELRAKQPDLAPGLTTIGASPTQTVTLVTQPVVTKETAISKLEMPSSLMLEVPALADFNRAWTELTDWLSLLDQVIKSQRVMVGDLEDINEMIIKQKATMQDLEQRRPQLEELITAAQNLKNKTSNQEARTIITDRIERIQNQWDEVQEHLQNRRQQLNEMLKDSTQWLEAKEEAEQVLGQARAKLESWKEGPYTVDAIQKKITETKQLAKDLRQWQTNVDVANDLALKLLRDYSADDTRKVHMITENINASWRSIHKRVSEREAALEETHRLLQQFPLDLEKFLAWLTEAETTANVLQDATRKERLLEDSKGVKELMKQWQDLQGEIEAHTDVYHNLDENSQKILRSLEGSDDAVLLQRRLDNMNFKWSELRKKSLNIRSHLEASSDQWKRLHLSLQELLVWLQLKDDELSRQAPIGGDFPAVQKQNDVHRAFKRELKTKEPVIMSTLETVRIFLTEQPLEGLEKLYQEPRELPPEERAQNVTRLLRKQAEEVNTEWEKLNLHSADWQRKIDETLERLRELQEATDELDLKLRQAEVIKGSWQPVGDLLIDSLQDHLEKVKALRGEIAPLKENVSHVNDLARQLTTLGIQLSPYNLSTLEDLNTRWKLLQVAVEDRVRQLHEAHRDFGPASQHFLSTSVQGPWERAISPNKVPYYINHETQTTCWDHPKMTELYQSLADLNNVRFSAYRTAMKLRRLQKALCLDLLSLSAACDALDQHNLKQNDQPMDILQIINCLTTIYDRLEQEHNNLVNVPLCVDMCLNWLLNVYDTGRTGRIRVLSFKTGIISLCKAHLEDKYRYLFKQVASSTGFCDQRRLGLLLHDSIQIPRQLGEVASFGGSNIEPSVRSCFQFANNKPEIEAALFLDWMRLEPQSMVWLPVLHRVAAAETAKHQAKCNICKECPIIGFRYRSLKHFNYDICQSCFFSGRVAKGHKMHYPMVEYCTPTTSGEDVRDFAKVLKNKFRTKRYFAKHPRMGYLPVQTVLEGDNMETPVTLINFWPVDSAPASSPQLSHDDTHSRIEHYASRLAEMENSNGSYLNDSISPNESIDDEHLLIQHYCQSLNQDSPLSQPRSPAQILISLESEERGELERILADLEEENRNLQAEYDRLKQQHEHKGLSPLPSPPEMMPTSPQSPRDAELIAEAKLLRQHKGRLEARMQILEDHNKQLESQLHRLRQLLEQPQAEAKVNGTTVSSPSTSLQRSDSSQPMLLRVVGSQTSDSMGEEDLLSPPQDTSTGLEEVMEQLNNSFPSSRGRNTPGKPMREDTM
UniProt Q9H6R0: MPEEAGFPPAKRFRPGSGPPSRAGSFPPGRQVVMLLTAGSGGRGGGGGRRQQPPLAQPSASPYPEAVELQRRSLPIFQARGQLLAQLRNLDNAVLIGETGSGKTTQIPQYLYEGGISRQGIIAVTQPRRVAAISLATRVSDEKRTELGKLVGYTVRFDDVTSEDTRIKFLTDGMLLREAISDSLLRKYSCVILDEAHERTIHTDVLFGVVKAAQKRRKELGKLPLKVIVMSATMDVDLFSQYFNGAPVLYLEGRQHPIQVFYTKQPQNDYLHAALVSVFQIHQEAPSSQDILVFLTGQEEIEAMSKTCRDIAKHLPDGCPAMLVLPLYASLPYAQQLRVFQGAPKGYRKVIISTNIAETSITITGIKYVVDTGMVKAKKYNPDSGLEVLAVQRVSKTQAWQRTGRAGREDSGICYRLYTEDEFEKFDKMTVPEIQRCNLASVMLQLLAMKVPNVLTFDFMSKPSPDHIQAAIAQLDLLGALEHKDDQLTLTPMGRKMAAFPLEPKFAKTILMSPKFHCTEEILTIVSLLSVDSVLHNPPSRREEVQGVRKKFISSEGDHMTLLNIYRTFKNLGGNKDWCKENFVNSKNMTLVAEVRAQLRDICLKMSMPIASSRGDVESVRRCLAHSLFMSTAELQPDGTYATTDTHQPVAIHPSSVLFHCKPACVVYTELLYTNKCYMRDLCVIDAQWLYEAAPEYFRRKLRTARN
UniProt P49184: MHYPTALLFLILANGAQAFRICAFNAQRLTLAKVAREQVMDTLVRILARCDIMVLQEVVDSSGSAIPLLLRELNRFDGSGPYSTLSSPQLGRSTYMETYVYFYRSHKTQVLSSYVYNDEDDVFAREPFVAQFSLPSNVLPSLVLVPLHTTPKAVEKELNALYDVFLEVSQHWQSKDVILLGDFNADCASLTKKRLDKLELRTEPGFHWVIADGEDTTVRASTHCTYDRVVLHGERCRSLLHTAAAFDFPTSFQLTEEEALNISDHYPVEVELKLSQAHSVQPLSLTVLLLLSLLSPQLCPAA
UniProt Q5SXM8: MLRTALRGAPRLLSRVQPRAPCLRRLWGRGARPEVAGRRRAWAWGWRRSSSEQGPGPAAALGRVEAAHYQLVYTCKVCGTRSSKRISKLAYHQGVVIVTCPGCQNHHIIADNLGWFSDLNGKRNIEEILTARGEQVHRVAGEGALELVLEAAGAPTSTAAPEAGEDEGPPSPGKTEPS

Compound in the first assay: CCn1cc(-c2ccnc3[nH]c(-c4cccc(CN(C)C)c4)cc23)c(-c2ccc(NC(=O)N(C)C)cc2)n1
In words: log2 fold change, soluble protein after heating vs DMSO (PISA); higher = thermal stabilisation; K562 lysate, 10 uM; active = over 0.2 and 3.5 SD of the protein, either way, in both replicates (recomputed). In outline: (§1)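 Quantification was by TMTpro 16plex LC-MS/MS with equalised channel sums, applied to the supernatant after 21,000xg for 90 min. Samples were crude K562 extract at 1 mg/mL protein in PBS pH 7.4 with 1 mM MgCl2, treated with 10 μM compound for 30 min, heated for 3 min across 48°C-58°C, pooled and brought to 0.5% NP-40 at 4°C. Values are log-two fold changes in thermal stability relative to solvent controls, from duplicates.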
On to DNM2 isoform 4 (UniProt P50570), for which the log2 fold change was inactive: -0.153.
On the same count and under the same terms, in the case of DLGAP5 isoform 3 (UniProt Q15398) it was inactive: -0.165; in that of DNM1 (UniProt Q05193), inactive: 0.005; in that of DHTKD1 (UniProt Q96HY7), inactive: -0.017.
Still for that read-out and setting: in the case of DONSON (UniProt Q9NYP3) it was inactive: -0.026; in that of DGCR6L (UniProt Q9BY27), inactive: -0.035; in that of DOLK (UniProt Q9UPQ8), inactive: 0.
Take DOCK11, A0A0J9YW64: the log2 fold change was inactive: -0.079.
For DNAJB1 (UniProt M0R128), the log2 fold change is inactive: -0.139.
Same read-out and setting: in the case of DOK2 (UniProt O60496) it was inactive: 0.08.
Still for that read-out and setting: in the case of DNAJC16 (UniProt Q9Y2G8) it was inactive: 0.142; in that of DMD isoform 14 (UniProt P11532), inactive: -0.151.
Same read-out and setting: in the case of DNMT3A (UniProt Q9Y6K1) it was inactive: 0.2; in that of DNMT1 (UniProt P26358), inactive: 0.141; in that of DHPS (UniProt M0R1T2), inactive: 0.028.
For DHX33 (UniProt Q9H6R0), the log2 fold change is inactive: 0.092.
As to DPAGT1 (UniProt Q9H3H5), the log2 fold change was inactive: -0.121.
For the target DNASE1L1 (UniProt P49184), the log2 fold change was inactive: 0.031.
Still for that read-out and setting: in the case of DNAJB14 (UniProt H7C494) it was inactive: 0.013; in that of DNLZ (UniProt Q5SXM8), inactive: 0.

Compound in the next assay: CN1CCC(CNc2ccc3ncc(-c4cccc(OC(F)(F)F)c4)n3n2)CC1
Described as above. Put shortly: as §1
For the target DNM2 isoform 4 (UniProt P50570), the log2 fold change is inactive: 0.021.
The same measure, in the same setting: the value for DLGAP5 isoform 3 (UniProt Q15398) was inactive: -0.03; that for DNM1 (UniProt Q05193) was inactive: -0.011.
Consider DHTKD1 (UniProt Q96HY7), for which the log2 fold change was inactive: -0.153.
Regarding DONSON (UniProt Q9NYP3), the log2 fold change is inactive: -0.206.
In the case of DGCR6L (UniProt Q9BY27), the log2 fold change was inactive: 0.052.
The same measure, in the same setting: in the case of DOLK (UniProt Q9UPQ8) it was inactive: -0.232; in that of DOCK11, A0A0J9YW64, inactive: 0.11.
The same measure, in the same setting: in the case of DNAJB1 (UniProt M0R128) it was inactive: 0.042.
Same read-out and setting: in the case of DOK2 (UniProt O60496) it was inactive: -0.02; in that of DNAJC16 (UniProt Q9Y2G8), inactive: -0.036; in that of DMD isoform 14 (UniProt P11532), inactive: -0.112.
Turning to DNMT3A (UniProt Q9Y6K1), the log2 fold change was inactive: 0.188.
In the case of DNMT1 (UniProt P26358), the log2 fold change is inactive: -0.07.
Same read-out and setting: in the case of DHPS (UniProt M0R1T2) it was inactive: -0.048; in that of DHX33 (UniProt Q9H6R0), inactive: -0.006; in that of DPAGT1 (UniProt Q9H3H5), inactive: 0.039.
The same measure, in the same setting: the value for DNASE1L1 (UniProt P49184) was inactive: 0.111.
Same read-out and setting: the value for DNAJB14 (UniProt H7C494) was inactive: -0.022; that for DNLZ (UniProt Q5SXM8) was inactive: -0.129.

Values taken from the supplement of paper PMC10849652.
